The whole screen tested about 340,000 compounds, of which about 170 (0.05%) were called active. Inconclusive means that the source gave no clear call. Such entries were picked first, then a sample of the others. Calls come from the whole dose curve; as a rule, active = well fitted inhibition curve with a large enough effect in the signal ratio, with a control signal flat (not every such curve was filed as active); inconclusive = small, poorly fitted or top-dose-only effect, or effect the other way, or a change in a side signal; inactive = flat fitted curve, though single readings scatter; the % refers to the signal ratio. Where the call is inconclusive, the potency comes from a doubtful curve fit.
Experiment: qHTS Assay to Find Inhibitors of Chronic Active B-Cell Receptor Signaling;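 for activity change, negative = inhibition: plate controls were basal doxycycline-induced cells for no effect and cells given 10 µM MG132 for full effect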
Conditions: ABC-DLBCL IkBa-CBG/CBR reporter, luminescence ratio (green luciferase fused to IkBa over red control in TMD8 lymphoma cells), 4 h; activity change, negative = inhibition: at 46.1 µM (top of the series) unless noted
Outline: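 Concentration-response series (up to 46 uM) were applied to TMD8 dual-reporter cells for 4 h at 37C with doxycycline. Green/red ratio, after filter-overlap correction, defined %Activity; red signal alone was normalised to basal cells and zero luminescence.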
Potency is the fitted concentration of half-maximal effect.

Compound	activity change, negative = inhibition	Potency
Cc1ccc(NC(=O)C2CC3CCC2C3)c(Br)c1 (stereo unspecified)	inconclusive: 15.4%	–
COc1cc(C2CC(=O)OC3=C2C(=O)CC(C)(C)C3)cc(OC)c1OC (stereo unspecified)	–	inconclusive: 15.8 µM [falling, single point]
CCOC(=O)c1ccc(NC(=S)NC(=O)C2CCCC2)cc1	inconclusive: 1.09%	–
COc1cc(N2CCCC2)c(OC)cc1/C=C(/C#N)c1cccc(F)c1	–	inconclusive: 0.58 µM [rising, full curve]
CCc1ccccc1NC(=O)CN1CCN(C(=O)CCC(=O)N2CCC(c3ccccc3)=N2)CC1	inconclusive: -4%	–
CCOc1ccccc1NC(=O)Cc1coc2cc(C)ccc12	–	inconclusive: 0.0731 µM [falling, full curve, poor fit]
Cc1ccccc1NC(=S)N/N=C1\CC(C)(C)Oc2ccc(O)cc21	inconclusive: 19.4%	–
O=C(O)/C=C/C(=O)Nc1ccc(S(=O)(=O)Nc2nccs2)cc1	–	inconclusive: 6.31 µM [falling, partial curve, poor fit]
COc1ccccc1-c1sc2ccccc2c1C#CC1(O)CCCCC1	inactive: 7%	–
COc1ccc(CCNC(=O)c2cc3c(=O)n4ccccc4nc3n(CCCN3CCOCC3)c2=N)cc1	inactive: 18.7%	–
CCn1c(SCC(=O)Nc2nccs2)nnc1-c1ccc(S(=O)(=O)N2CCCCCC2)cc1	–	inconclusive: 25.9 µM [rising, partial curve, poor fit]
CC1=CC(C)[C@H](/C=N/n2c(=O)[nH]c3c([nH]c4ccc(Br)cc43)c2=O)C(C)C1 (stereo partly specified)	inactive: 15.2%	–
CN(C)C(=S)N=Nc1[nH]c2ccccc2c1O	–	inconclusive: 5.62 µM [cytotoxic, single point]
O=C(/C(=C/O)N=Nc1ccccc1)c1ccncc1	–	inconclusive: 29.1 µM [falling, single point]
Cc1cc(-c2ccccc2)c2c(=O)[nH][nH]c2n1	inconclusive: 0.969%	–
Cc1ccc(N2CC(NC(=O)C(=O)c3c[nH]c4ccccc34)CC2=O)cc1 (stereo unspecified)	–	inconclusive: 0.794 µM [falling, full curve, poor fit]
COc1ccc(OC)c(-c2cc(C(=O)N3CCc4ccccc4C3)no2)c1	–	inconclusive: 25.1 µM [falling, single point]
Cc1ccc(S(=O)(=O)NC2=NCN(CCOC(=O)c3ccccc3)CN2)cc1	inconclusive: -20.2%	–
N/C(=N\OCc1ccc([N+](=O)[O-])cc1)c1ccncc1	–	inconclusive: 14.1 µM [falling, partial curve, poor fit]
CCCC(=O)OCCNc1cc(Sc2nc3ccccc3[nH]2)c2nonc2c1[N+](=O)[O-]	inconclusive: 8.97%	–
Fc1cccc2sc(N3CCOCC3)nc12	inactive: -13.4%	–
CCS(=O)(=O)NCCNc1ccc([N+](=O)[O-])cc1	inconclusive: 3.97%	–
COC(=O)c1sc(NC(=O)CSc2n[nH]c(N)n2)c(C(=O)OC)c1C	inconclusive: -12.3%	–
CCOC(=O)c1cccc(NC(=O)Nc2ccc(OCC)cc2)c1	inconclusive: -18.8%	–
Cc1ccc(-c2cc(C(=O)N3CCN(c4ccccc4)CC3)c3ccccc3n2)cc1C	inconclusive: 0.233%	–
CCSc1ccc2cc(OC)ccc2[n+]1CC	inactive: -2.85%	–

13 of these compounds in a different format.
Compound | activity change, negative = inhibition | Potency
COc1ccccc1-c1sc2ccccc2c1C#CC1(O)CCCCC1 | inactive: 7% | –
COc1ccc(CCNC(=O)c2cc3c(=O)n4ccccc4nc3n(CCCN3CCOCC3)c2=N)cc1 | inactive: 18.7% | –
CCn1c(SCC(=O)Nc2nccs2)nnc1-c1ccc(S(=O)(=O)N2CCCCCC2)cc1 | – | inconclusive: 25.9 µM [rising, partial curve, poor fit]
CC1=CC(C)[C@H](/C=N/n2c(=O)[nH]c3c([nH]c4ccc(Br)cc43)c2=O)C(C)C1 (stereo partly specified) | inactive: 15.2% | –
CN(C)C(=S)N=Nc1[nH]c2ccccc2c1O | – | inconclusive: 5.62 µM [cytotoxic, single point]
O=C(/C(=C/O)N=Nc1ccccc1)c1ccncc1 | – | inconclusive: 29.1 µM [falling, single point]
Cc1cc(-c2ccccc2)c2c(=O)[nH][nH]c2n1 | inconclusive: 0.969% | –
Cc1ccc(N2CC(NC(=O)C(=O)c3c[nH]c4ccccc34)CC2=O)cc1 (stereo unspecified) | – | inconclusive: 0.794 µM [falling, full curve, poor fit]
COc1ccc(OC)c(-c2cc(C(=O)N3CCc4ccccc4C3)no2)c1 | – | inconclusive: 25.1 µM [falling, single point]
Cc1ccc(S(=O)(=O)NC2=NCN(CCOC(=O)c3ccccc3)CN2)cc1 | inconclusive: -20.2% | –
N/C(=N\OCc1ccc([N+](=O)[O-])cc1)c1ccncc1 | – | inconclusive: 14.1 µM [falling, partial curve, poor fit]
CCCC(=O)OCCNc1cc(Sc2nc3ccccc3[nH]2)c2nonc2c1[N+](=O)[O-] | inconclusive: 8.97% | –
Fc1cccc2sc(N3CCOCC3)nc12 | inactive: -13.4% | –

Following part:

Compound	activity change, negative = inhibition	Potency
Cc1cc(C(C)(C)C)cc(C)c1Cn1c2[n+](c3ccc(C(F)(F)F)cc31)CCCCC2	inconclusive: -9.19%	–
O=C(NCCCN1CCOCC1)c1ccc2c(c1)N(Cc1cccc(F)c1)C(=O)c1ccccc1S2	inconclusive: 0.994%	–
CCSc1nnc(NC(=O)C(C)C)s1	inconclusive: 13.7%	–
O=C(Nc1ccncc1)c1cc2ccccc2o1	inconclusive: -22.7%	–
Cn1c(=O)[nH]c(=O)c2c1nc(SCC(N)=O)n2Cc1cccc(Br)c1	inconclusive: -15%	–
CSCCC(C(=O)NCc1cccs1)N1C(=O)c2ccccc2C1=O (stereo unspecified)	–	inconclusive: 2.06 µM [falling, partial curve, poor fit]
Cc1ccc(C(=O)CNc2ccc(Cl)cc2)cc1	–	inconclusive: 22.4 µM [falling, single point]
COc1ccc(-c2nc3c(s2)CN(S(C)(=O)=O)CC3)cc1OC	inconclusive: 1.73%	–
CCCOc1ccccc1NC(=O)/C=C/C(N)=O	inconclusive: -4.01%	–
CCOc1cccc(C=Nc2cc(C)cc(C)c2O)c1O	–	inconclusive: 6.51 µM [rising, full curve, poor fit]
Cc1ccc(NCCCCO)cc1C	inconclusive: -1.48%	–
C/C(=N\NC(=O)Cc1cccn1C)c1ccc2ccccc2c1	inconclusive: -12%	–
COc1cc(NC(=O)C(C)Oc2ccccc2)cc(OC)c1 (stereo unspecified)	inconclusive: 3.96%	–
CC(C)C(=O)NNC(=O)c1csc(CS(=O)(=O)c2ccc(Cl)cc2)n1	inconclusive: 4.86%	–
Cc1ccc(C(=O)OCC(=O)NCc2cccs2)cc1S(=O)(=O)N1CCOCC1	inconclusive: 0.607%	–
COc1ccc(-c2nnc(N3CCC(C)CC3)c3ccccc23)cc1	inactive: 1.63%	–
COc1ccc(S(=O)(=O)Nc2ccc(S(=O)(=O)N3CCCCC3)cc2)cc1OC	inconclusive: 0.625%	–
C=C(C)COc1ccc(-c2nc(N)ncc2-c2ccc(Br)cc2)c(O)c1	inconclusive: 1.55%	–
O=c1oc2ccccc2c(CNc2ccccc2)c1[N+](=O)[O-]	–	inconclusive: 11.2 µM [falling, partial curve]
CCCCCC1CCC(c2n[nH]c(=S)n2C)CC1 (stereo unspecified)	–	inconclusive: 7.94 µM [falling, partial curve]
Cc1cc(NC(=O)Nc2cccc(Cl)c2)n(C(C)(C)C)n1	inconclusive: 15.3%	–
CC1CC(=O)N(c2ccc(C(C)C)cc2)C(=O)C1	–	inconclusive: 11.2 µM [falling, partial curve]
O=C(c1ccc2c3c(cccc13)C(=O)N(O)C2=O)N1CCCCC1	inactive: -0.49%	–
COc1cc(C(=O)Nc2ccc3c(c2)ncn3C)cc(OC)c1OC	–	inconclusive: 35.5 µM [falling, single point]
O=C(O)C1CCCCC1C(=O)Nc1ccc(OCc2ccccc2)cc1 (stereo unspecified)	inconclusive: -16.7%	–

Reference: PubChem BioAssay AID493014 (National Center for Advancing Translational Sciences (NCATS), 2011)
